Laboratory results as given in PubChem BioAssay AID1259415 (National Center for Advancing Translational Sciences (NCATS), 2018).
Hit rate of the full screen: of about 410,000 compounds, about 18,000 (4.4%) were called active. Inconclusive means that the source gave no clear call. Such entries were picked first, then a sample of the others. No stated cut-off is given here; in the data, active means activity change below about -60%; inconclusive means no clear call, values can overlap the other calls; inactive means above about -39%.

Test: qHTS Assay for inhibitors of the human cytomegalovirus (HCMV)
Details: HFF cells, HCMV-luciferase reporter, 72 h; at 57.5 µM; stronger effect = lower value
Outline: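 Human foreskin fibroblasts infected with luciferase-reporter HCMV at MOI 1 PFU/cell, compounds at two doses. Luciferase measured 72 h post infection; normalized to buffer-only basal and Salinomycin (10uM) controls.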
On the % scale 0 is the no-effect control and ±100 the full control effect.

Row | SMILES | activity change, negative = inhibition
1 | CN(CC(=O)Nc1ccc2c(c1)CCC2)CC(=O)Nc1ccccc1Br | inactive: 12.5%
2 | COc1ccc(CC(=O)NNC(=O)COc2ccc3ccccc3c2)cc1 | inconclusive: -56.6%
3 | COc1cccc(-c2cc(NC=O)c3ncc(-c4cc(OC)c(OC)c(OC)c4)n3c2)c1 | active: -81.2%
4 | C[C@H](NC(=O)C1CCN(S(=O)(=O)c2ccccc2)CC1)C(=O)NCc1ccco1 | inactive: -34.2%
5 | COc1ccc(-n2nc(C(=O)Nc3ccc(OC)c(OC)c3)c3c4ccccc4n(C)c3c2=O)cc1 | active: -64.4%
6 | COc1ccc(C(O)c2nc3ccccc3n2C)cc1OC (stereo not given) | active: -88.4%
7 | CC(=C/c1ccco1)/C=N/NC(=O)c1nnn(-c2nonc2N)c1CN(C)C | active: -60.1%
8 | Cc1ccc(CCNC(=O)c2cc3c(s2)-c2ccccc2OC3)cc1 | active: -88.6%
9 | O=C(C[n+]1cc(-c2ccc(Cl)cc2)n2c1CCC2)Nc1nc(-c2ccc(F)cc2)cs1 | active: -62.9%
10 | CCOC(=O)CSCc1nc(-c2ccc(Cl)cc2)oc1C | inconclusive: -42.5%
11 | CCC(C(=O)NC1CCCC1)N(C(=O)c1snc(C(N)=O)c1N)c1ccc(C)cc1C (stereo not given) | inconclusive: -40.9%
12 | COc1nnc(OC)c2ccccc12 | inconclusive: -41.2%
13 | COc1ccc(-c2cc(-c3nc4ccccn4c3NCc3ccccc3)ccc2OC)cc1 | active: -79.3%
14 | N=c1n(CCN2CCCCC2)c2ccccc2n1CC(O)c1ccc(Cl)c(Cl)c1 (stereo not given) | active: -97.2%
15 | Nc1ccccc1C(=O)NN=Cc1cccc([N+](=O)[O-])c1 | inactive: 32.5%
16 | COc1ccc(S(=O)(=O)n2nc(-c3ccc(Cl)cc3)cc2N)cc1OC | inconclusive: -47.6%
17 | CC(=O)Nc1ccc(S(=O)(=O)Nc2nc3ccccc3nc2-n2ccc(=NC(=O)c3ccccc3)cc2)cc1 | inconclusive: -51.8%
18 | CC(C)(C)n1ncc2c(=O)n(Cc3cccc(Cn4cnc5c(cnn5C(C)(C)C)c4=O)c3F)cnc21 | active: -87.7%
19 | Cc1ccc(S(=O)(=O)Nc2cc(C(F)(F)F)ccc2N2CCOCC2)c(C)c1 | inconclusive: -53.4%
20 | COc1cccc(CN2CCN(C(=O)c3ccco3)CC2)c1 | inactive: 21.4%
21 | CC1(C(=O)Nc2cccc(C(F)(F)F)c2)Cc2ccccc2C(=O)O1 (stereo not given) | inactive: -4.63%
22 | CC1CCCC(C)N1CC(O)COCc1ccccc1 (stereo not given) | inconclusive: -56.9%
23 | COC(=O)/C=C1/N/C(=N\c2nc(C)cc(C)n2)N(c2ccccc2)C1=O | inconclusive: -41.8%
24 | CCCOc1ccc(Br)cc1CSC(=N)N | active: -95.4%
25 | CSc1ccccc1OCc1cc(C(=O)N2CCC(c3ccncc3)CC2)no1 | inconclusive: -52.8%
26 | CCN(CC)S(=O)(=O)c1ccc(NN=C(C#N)C#N)cc1 | inconclusive: -54.2%
27 | CCc1nc2ccccc2nc1N1CCN(S(=O)(=O)c2ccccc2)CC1 | active: -68.5%
28 | CSc1nc2ccccc2nc1N(C)S(=O)(=O)c1ccc(C)cc1 | active: -66.1%

Among those listed so far, two contain a CF3 group.
Row | SMILES | activity change, negative = inhibition
19 | Cc1ccc(S(=O)(=O)Nc2cc(C(F)(F)F)ccc2N2CCOCC2)c(C)c1 | inconclusive: -53.4%
21 | CC1(C(=O)Nc2cccc(C(F)(F)F)c2)Cc2ccccc2C(=O)O1 (stereo not given) | inactive: -4.63%

Carrying on.

Row | SMILES | activity change, negative = inhibition
29 | O=C(c1cc(F)ccc1F)C1CCCN(Cc2ccc3nonc3c2)C1 (stereo not given) | inconclusive: -42.3%
30 | O=C(CSc1ncnc2ccccc12)Nc1cc(S(=O)(=O)N2CCCCC2)ccc1Cl | inconclusive: -53.9%
31 | Cc1cc(O)cc(C)c1NS(=O)(=O)c1ccc2ccccc2c1 | active: -83.2%
32 | CCn1cc(C(=O)O)c(=O)c2cc(F)c(N3CCN(C(=S)NC(=O)c4ccc(OC)cc4)CC3)cc21 | inconclusive: -47.4%
33 | CCN(CC)c1ccc(NC(=O)COc2ccccc2C)cc1S(=O)(=O)Nc1ccccc1OC | inconclusive: -52.6%
34 | O=C(COc1ccc(S(=O)(=O)N2CCCCC2)cc1)NCC1CCCO1 (stereo not given) | inconclusive: -41.5%
35 | CC1=C(C(=O)Nc2c(C)cc(C)cc2C)C2(CCN(C(C)C)CC2)OC1=O | inactive: 9.54%
36 | CCOCCCNC(=O)C(c1ccc(OC)cc1)N(Cc1cccs1)C(=O)c1ccccc1O (stereo not given) | inconclusive: -44%
37 | O=C(NC(=S)Nc1ccccc1N1CCCC1)c1ccc([N+](=O)[O-])cc1 | inconclusive: -43.4%
38 | Cc1ccnc(Cc2ccccc2)n1 | inconclusive: -50.5%
39 | O=c1[nH]cnc2sc3c(c12)CCN(Cc1ccccc1)C3 | inconclusive: -45.6%
40 | C/C(CC(=O)Nc1ccc(OCc2ccccc2)cc1)=N\NC(=O)C(=O)Nc1ccc(C)c(Cl)c1 | inconclusive: -49.4%
41 | Cc1ccc(C(=O)N/C(=C/c2ccc(-c3cccc([N+](=O)[O-])c3)o2)C(=O)NC(C)(C)C)cc1 | inactive: -24.4%
42 | Cc1ncc(COCc2ccccc2)c(CO)c1OCc1ccccc1 | inconclusive: -42%
43 | CC1CCCCC1NC(=O)C1CCC(CNS(=O)(=O)c2cccc3cccnc23)CC1 (stereo not given) | inconclusive: -54.2%
44 | COc1cc(NC(=S)N2CCC(C(N)=O)CC2)c(OC)cc1Cl | inconclusive: -50.5%
45 | Cc1ccc(C(c2nnnn2C2CCCC2)N2CCc3ccccc32)cc1 (stereo not given) | inconclusive: -48.4%
46 | Cc1cccc(NC(=O)c2cc(NC(=O)C3CCCCC3C(=O)O)ccc2Cl)n1 (stereo not given) | inactive: -3.69%
47 | Clc1ccc(-c2csc(NCC3CCCO3)n2)cc1 (stereo not given) | inconclusive: -59.2%
48 | COc1ccc(N(CC(=O)Nc2ccc(Cl)cc2C)S(=O)(=O)c2ccccc2)c(OC)c1 | active: -71.3%
49 | Cc1ccc(S(=O)(=O)Oc2ccccc2[N+](=O)[O-])cc1 | inconclusive: -59.2%
50 | COc1ccc(S(=O)(=O)N(CC(=O)NCC2CCCO2)c2ccc(Cl)cc2)cc1 (stereo not given) | inconclusive: -57.3%
51 | O=C(CSc1ncc(C(F)(F)F)cc1Cl)NCC1CCCO1 (stereo not given) | inconclusive: -41.9%
52 | O=C(COc1ccc(S(=O)(=O)N2CCCC2)cc1Cl)Nc1ccc2c(c1)OCO2 | inactive: 1.45%
53 | CN(C)CCCn1cnc2c(c1=N)C(c1ccccc1)c1ccc3ccccc3c1O2 (stereo not given) | active: -98.5%
54 | COc1ccc(OC)c(CCNC(=O)C(C)n2nc(C)c3c(C)n(-c4ccc(C)cc4)nc3c2=O)c1 (stereo not given) | inconclusive: -55.1%
55 | CSc1ccccc1NC(=O)Nc1cccc2ccccc12 | inactive: 10.6%
